Source: PubChem BioAssay AID1508600 (Functional Genomics Laboratory (NCATS/FGL), 2020)
About 3,700 (7%) of roughly 53,000 sequences were called active.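 Rule for the calls: active = gene knockdowns whose robust z-score for IL-1 alpha signal is at least 2 or at most -2, so actives lie on both sides; inactive = the rest.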 Some of the results follow.

Experiment: Components of the Cytosolic LPS Sensing Pathway: Gene Identification via Genome-wide siRNA Screen;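 note: robust z of the log signal after scaling to non-targeting control siRNA wells of the plate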
Conditions: RAW264.7 macrophages, IL-1a HTRF, actives lie on both sides, screened at 100 nM (by protocol), cells primed 5 h with Pam3CSK4 first
How it was run: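 IL-1a HTRF of supernatants after 24 hour LipidA transfection of Pam3CSK4-primed (5 hours) RAW264.7 cells, 48h post-siRNA transfection (100 nM). Scores: percent of plate negative-control median, then log-based robust z-score.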
With GGACUGUUUUGAGAAUUGATT against Vil1 the z-score was inactive: -0.984. With GGUACUAUUAACAAACACUTT against Mtmr10 the z-score was inactive: -1.78. In the case of UUUUCACCGAACAAAGAACTT against Slc25a47, the z-score was inactive: 0.833. For GGUCACUGUCAUCAACAGATT against Il6st, the z-score was inactive: -1.17. For GGAGGACAUUGAUGUGAUGTT against Sag, the z-score was inactive: 0.179. In the case of GGCUAUGGGAAUCAUGAAUTT against H2bc18, the z-score was active: -2.84. With CCGAACAGAGGAAGAAGGCTT against Olfr816 the z-score was inactive: 0.281. In the case of CCUCUGCCCAUUAUCGAAGTT against Cyp2c23, the z-score was inactive: -0.225. In the case of CCCGAGAAACCUGGAGUCUTT against Klk8, the z-score was inactive: -1.88. In the case of GCUCUACAUGUUUAUCACATT against Olfr311, the z-score was inactive: -1.03. For GCACUAAAACCCAAUCAGATT against Fmnl3, the z-score was inactive: 1.01. In the case of CCGUAAAAAAUUCUGUAAGTT against Ube2l3, the z-score was inactive: 0.475. For “GGAACACACAAUUUUAUCATT against 4933436I01Rik”, the z-score was active: -2.98. With GGAAUGGAAUACAAAGUCATT against Isg20l2 the z-score was inactive: -0.305. In the case of UUGGGAAAACCAUGAUGCATT against Romo1, the z-score was inactive: -0.242. In the case of “GCCGUAAGCUAGGAUCUGGTT against 1700065D16Rik”, the z-score was inactive: 0.787. With “GAAAUGUACCUGCCUUUUCTT against D830030K20Rik” the z-score was inactive: 0.613. With GGUGAUAUGCAUGAAAAUGTT against Jpt1 the z-score was inactive: -0.657. With CCGGAAAACAAAAUUGCUATT against Obp1a the z-score was inactive: 0.492. With GCUAUUGCCUCAUCUUAUGTT against Olfr654 the z-score was inactive: 1.65. In the case of CAAUAACAGCGAAACAUCCTT against Scn4b, the z-score was inactive: 0.0989. In the case of GGACAUGUGUCCAGUUUUCTT against Sspn, the z-score was inactive: -0.255. With GGAGUUAAAAGAUGUAAUCTT against Pikfyve the z-score was inactive: 0.636. In the case of GCUUCAAGUGAGUCUCACUTT against Nup35, the z-score was inactive: 0.347. With GGAGAACAUUCAAAAUACGTT against Sgo2a the z-score was inactive: 0.827. In the case of CCUCAUGCAGCUCAAUCUATT against Prelp, the z-score was active: -2.41. For GGGCAAGUUUGUGGAGCUUTT against Akr7a5, the z-score was inactive: 0.0772. In the case of CGUAUUCCAAAUACACUUGTT against Meox2, the z-score was inactive: 0.959. In the case of GUGGCACCUUUGGUGAAGCTT against Kiss1, the z-score was inactive: -0.59. With GGGUUAUGUCUGUGGAGCUTT against Bcl2l2 the z-score was inactive: 1.37. With GCGAGGACAUCGUAGAGAATT against Msi1 the z-score was inactive: 0.997. With GGAGCAUCAUUUUAACACUTT against Tubd1 the z-score was inactive: 0.925. In the case of GGGAAGCAGAAAUGAGAAATT against Pdcd5, the z-score was inactive: 0.135. For GGACACCAAAAGCUAAGUGTT against Cnppd1, the z-score was inactive: -1.98. With GGUCUAGAUUAUGAGCAAUTT against Pcdhga7 the z-score was inactive: 1.35. With CCUAACUUCACUUGAUAUGTT against Snx21 the z-score was inactive: 0.135. For GGUGGCCAUCAAGAAGAUATT against Mapk7, the z-score was inactive: -0.749. With “GGUCUCUAGUGGAAAAGCATT against A430093F15Rik” the z-score was active: -3.05. For CCAUCGUAUAAAUUACCAUTT against Plaa, the z-score was inactive: -0.762. With GCCAGUUUAGGUAAUAAACTT against Socs1 the z-score was inactive: 0.395. With GCCAUUCUGCCCUACACAATT against Rasa1 the z-score was inactive: 0.135. In the case of CCCUAGCAUCAAGAGUGCUTT against Fryl, the z-score was inactive: -0.00437. In the case of GGUAUGACCUAGUGGAGGGTT against Trem1, the z-score was inactive: -0.0909. With GGACAGAAACUCCUUAUCATT against Zfp628 the z-score was inactive: -0.99. With CCAUAGUGUAUCUGACUGGTT against Iqsec1 the z-score was inactive: -0.135. In the case of GCCGGGAGAGUAAUGUCUGTT against Lmtk3, the z-score was inactive: 0.547. In the case of GCGACCAGCCUGUUGUUGUTT against Vrtn, the z-score was inactive: 0.538. With GGUCCCUAGAAAUUCGGGATT against Nphp3 the z-score was inactive: 1.28. For CCAUCACUCUUAAAUAUUCTT against Klri2, the z-score was inactive: -1.36. For GGAGGAGAAUUACUCCUUUTT against Med9, the z-score was inactive: 0.956. With GGACAGGAGCUGUUUGACCTT against Epb41l5 the z-score was inactive: -0.885. In the case of GGAGAAGUUAAAGAAGAACTT against Ddx55, the z-score was inactive: -0.433. In the case of GAGAUUUUGUUUGGGUUGUTT against Olfr1126, the z-score was inactive: 1.16. For GGAAGCAAGUAUCCCGAAUTT against Snhg11, the z-score was active: -2.58. For GGCCCUAUUUUGGAUAACUTT against Tgfb1i1, the z-score was inactive: 0.344. With CGAUGACGAUGCCUAACCATT against Dgkeos the z-score was active: -2.34. With “GGAUCUGUGUGCUAACAGCTT against 4930550C14Rik” the z-score was inactive: 0.686. With GGAUGAUCUUGGUGUACACTT against Tmem91 the z-score was active: 3.04. In the case of GGAGUUUGAAAGUUCCUUCTT against Dap3, the z-score was inactive: 1.82. With CCCAAAGGUGAUGUUACCUTT against H2-M3 the z-score was inactive: -0.491. In the case of GGUUCUGUAAAUUCAACUATT against Zfp593, the z-score was inactive: 0.706. For GGGCAUAGAUUAGUCUUUATT against Ing2, the z-score was inactive: 1.01. In the case of GGACAAUACCUACCUCGCATT against Polr3d, the z-score was inactive: 0.971. With GGAAUGGAUACUUAUCUCUTT against Tef the z-score was inactive: 1.17. For “GGAUUCCUACAGGUGUGAATT against 4930503E14Rik”, the z-score was inactive: 1.02. With CCCAGACAUUACAUGGCCUTT against Cldn6 the z-score was inactive: -0.935. With GCCUAAGGAUCCUGGGUUATT against Orai3 the z-score was inactive: 1.43. With CGAGCCUGACUUCAAUCCUTT against Clcf1 the z-score was inactive: -0.403.
